# Experimental data from PubChem BioAssay AID1347076 (National Center for Advancing Translational Sciences (NCATS), 2019).
# Out of some 400,000 compounds screened, about 13,000 (3.2%) were called active. Inconclusive results, whose numbers are uncertain, are shown with a selection of clear calls. Calls come from the whole dose curve; as a rule, active = well fitted cell-killing curve with a large enough effect; inconclusive = small, poorly fitted or top-dose-only effect, or effect the other way; inactive = flat fitted curve, though single readings scatter. Potencies beside an inconclusive call are fits to weak or partial responses and may not hold up.
# Test: qHTS assay for MDR1-selective chemotherapeutics: Primary screen using the drug-selected MDR subline cells KB-V1; note: nearly all actives have a fitted effect of over 60% in size
# Details: KB-V1 MDR cells viability, CellTiter-Glo, 72 h; activity change, negative = cytotoxicity: at 46.1 µM (top of the series)
# Summary of the method: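 Cytotoxicity toward P-gp-expressing KB-V1 cells was determined as loss of CellTiter-Glo luminescence after 72 h at 37 degrees C. Compounds were tested in quantitative HTS format across a concentration range, with curves fitted to normalized data.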
# % is set by controls: 0 for no effect and ±100 for the full control effect; potency is the fitted concentration of half-maximal effect.
Compound,Potency,"activity change, negative = cytotoxicity"
CCOC(=O)[C@H]1[C@H]2COc3ccccc3[C@@H]2N2C(=O)c3ccc(Cl)cc3NC(=O)[C@@]12C,"inconclusive: 20.6 µM [cytotoxic, partial curve]",–
COc1ccc(NS(=O)(=O)c2cc(N)ccc2N2CCOCC2)cc1,"inconclusive: 20.6 µM [rising, single point]",–
CC1Cc2ccccc2N1C(=O)CN1C(=O)NC(C)(c2ccc3c(c2)OCCO3)C1=O (configuration not stated),"inconclusive: 18.4 µM [cytotoxic, partial curve, poor fit]",–
CCOc1cc(C(=O)N2CCC(CC3CC(c4ccc(Cl)cc4)=NO3)(C(=O)NCC3CCCCC3)CC2)cc(OCC)c1OCC (configuration not stated),"inconclusive: 18.4 µM [rising, partial curve, poor fit]",–
CCc1ccc(C(=O)NNC(=O)C2CCN(c3ncnc4sc(C)c(C)c34)CC2)cc1,"inconclusive: 29.1 µM [cytotoxic, single point]",–
Cc1ccc(S(=O)(=O)N2CCOCC2)cc1C(=O)Nc1cccc(C(=O)NC2CC2)c1,"inconclusive: 18.4 µM [rising, partial curve]",–
Cc1ccccc1-c1ccnc2c(-c3ccc(F)cc3)c(C)nn12,–,inactive: 3.01%
O=C(CSc1cccc[n+]1[O-])Nc1cc(S(=O)(=O)N2CCOCC2)ccc1N1CCOCC1,"inconclusive: 5.8 µM [rising, full curve]",–
COc1ccccc1S(=O)(=O)NCc1ccc(C(=O)N(C)Cc2ccc(F)cc2)cc1,"inconclusive: 18.4 µM [cytotoxic, single point]",–
C=C1[C@@H](O)[C@@H]2O[C@]3(CC[C@H](/C=C/[C@@H](C)[C@@H]4CC(C)=CC5(O[C@H](C[C@@](C)(O)C(=O)OC)CC[C@H]5O)O4)O3)CC[C@H]2O[C@@H]1[C@@H](O)C[C@H](C)[C@H]1OC2(CCCCO2)CC[C@H]1C (some centres not stated),active: 18.4 µM,–
COc1cccc(-c2onc3ccc(C4(C)OCCO4)cc23)c1,–,inactive: -13.4%
C=CC[n+]1c(/C=C2\C=Cc3cc(C)ccc3N2CC)ccc2ccccc21,"inconclusive: 29.1 µM [cytotoxic, single point]",–
COc1ccc(C(=O)NCc2cnn(C)c2)cc1OC1CCN(C(C)C)CC1,"inconclusive: 29.1 µM [rising, single point]",–
S=C1SCN(CC2CC2)CN1CC1CC1,–,inactive: -0.245%
c1ccc(C2CCC(N3CCNCC3)CC2)cc1 (configuration not stated),–,inactive: 9.97%
COc1ccc(C2Nc3ccccc3-n3c(-c4ccccc4)c4c(=O)n(C)c(=O)n(C)c4c32)cc1 (configuration not stated),"inconclusive: 20.6 µM [cytotoxic, single point]",–
Cc1ccc(C)c(NC(=O)COC(=O)CNC(=O)C2CCCCC2)c1,"inconclusive: 10.3 µM [rising, partial curve, poor fit]",–
O=C(Nc1ccc(S(=O)(=O)N2CCCC2)cc1)c1cc(F)c(F)cc1Cl,"inconclusive: 16.4 µM [cytotoxic, partial curve]",–
COc1ccccc1CNc1cc(C)ccn1,–,inactive: -19.8%
COCCCN1CN=C(NS(=O)(=O)c2ccc(NC(C)=O)cc2)NC1,"inconclusive: 29.1 µM [rising, single point]",–
O=C(NNC(=O)c1cccnc1SCc1cccc([N+](=O)[O-])c1)c1ccccn1,"inconclusive: 1.3 µM [cytotoxic, full curve, poor fit]",–
COc1ccc(F)cc1C1=CC(=O)C[C@H](c2ccc3c(c2)OCO3)C1,"inconclusive: 23.1 µM [cytotoxic, single point]",–
Cc1ccc2nc(C)c3c(c2c1)N(c1ccc(F)cc1)CC3,"inconclusive: 13 µM [cytotoxic, partial curve]",–

Compound,Potency,"activity change, negative = cytotoxicity"
O=C(NCC(c1ccco1)N1CCN(c2ccccc2)CC1)c1ccco1 (configuration not stated),"inconclusive: 7.31 µM [cytotoxic, partial curve]",–
CN(C)c1ccc(/C=C/c2ccnc3c2ccc2ccccc23)cc1,"inconclusive: 32.6 µM [cytotoxic, partial curve, poor fit]",–
O=C(c1ccc(F)cc1)C1CCN(Cc2ccccc2F)CC1,–,inactive: -16.6%
CC(C)(C)c1ccc(OCc2cnc(Cl)s2)cc1,–,inactive: -0.931%
COc1ccc2[nH]c(=S)cc(C)c2c1,active: 14.6 µM,–
Cc1ccc(N2C(=O)CC(N3CCN(c4ccc(F)cc4)CC3)C2=O)c(C)c1 (configuration not stated),–,inactive: 14.1%
O=S(=O)(c1ccc2c(c1)OCCO2)N1CCC(n2nnc3cc(C(F)(F)F)ccc32)CC1,"inconclusive: 11.6 µM [cytotoxic, partial curve]",–
Cn1c2c(c(=O)n(C)c1=O)C(C(F)(F)F)(C(F)(F)F)N=C(C1CCCCC1)N2,"inconclusive: 16.4 µM [cytotoxic, single point]",–
Cc1ccc(-n2c(COc3cccc(C)c3)n[nH]c2=S)cc1,–,inactive: -31.3%
Cc1ccc(C)c(C(=O)C(C)OC(=O)c2cccn2C)c1 (configuration not stated),"inconclusive: 18.4 µM [cytotoxic, single point]",–
COc1ccc(-n2nc3c(c2NC(=O)c2ccc(N4C(=O)CCC4=O)cc2)CSC3)cc1,"inconclusive: 9.2 µM [rising, partial curve, poor fit]",–
Cc1ccc(C)n1-c1cccc(NC(=O)c2ccccc2)c1,active: 23.1 µM,–
O=C(NCc1ccc2c(c1)OCO2)c1cc([N+](=O)[O-])ccc1N1CCOCC1,"inconclusive: 3.66 µM [cytotoxic, full curve]",–
Cc1ccc(S(=O)(=O)c2c(C)cc(C)nc2N2CCOCC2)cc1,"inconclusive: 16.4 µM [cytotoxic, single point]",–
CCN(CC)C(=O)C(=O)c1cccn1-c1cccc(-n2cccc2C(=O)C(=O)N(CC)CC)c1C#N,"inconclusive: 23.1 µM [cytotoxic, single point]",–
CCc1c(C)nc2ncnn2c1N1CCCC(C(=O)NCc2ccco2)C1 (configuration not stated),–,inactive: -11%
CCN(CC)CCN(C(=O)c1ccc2c(c1)CCCC2)c1nc2c(OC)cccc2s1,–,inactive: -19.3%
COc1ccc(OC)c(NC(=O)CN2CCC(C(=O)c3ccc(C)cc3)CC2)c1,active: 8.2 µM,–
Cc1ccccc1CNC(=O)C1CCC(=O)N(C2CCCCCC2)C1 (configuration not stated),"inconclusive: 20.6 µM [cytotoxic, single point]",–
CCOC(=O)C1CCCN(S(=O)(=O)c2cccc3nsnc23)C1 (configuration not stated),"inconclusive: 29.1 µM [rising, single point]",–
CCN(CC)Cc1ccc(NC(=O)c2sc3cc(Cl)ccc3c2Cl)cc1,"inconclusive: 29.1 µM [cytotoxic, single point]",–
COc1cccc(C(=O)NCCS(=O)(=O)NCCCc2ccccc2)c1,active: 16.4 µM,–
CN1CCC(=NNC(=O)CN(c2cccc([N+](=O)[O-])c2)S(=O)(=O)c2ccccc2)CC1,"inconclusive: 3.26 µM [cytotoxic, partial curve, poor fit]",–

Compound,Potency,"activity change, negative = cytotoxicity"
CCC(=O)Nc1ccc(Cl)c(NC(=S)NC(=O)c2cc3ccccc3o2)c1,"inconclusive: 7.31 µM [cytotoxic, partial curve]",–
COc1cccc(CN(C(=O)c2oc3ccc(Br)cc3c2C)C2CCS(=O)(=O)C2)c1 (configuration not stated),–,inactive: -26.9%
CCN(CC)C(=O)C1CCN(Cc2cccc(OCc3ccccc3)c2)CC1,"inconclusive: 18.4 µM [cytotoxic, partial curve, poor fit]",–
COc1ccc(CN(Cc2ccccn2)C(=O)CN2C(=O)C(C)Oc3ccccc32)cc1 (configuration not stated),active: 2.06 µM,–
C[n+]1ccccc1/C=C/c1c(F)cccc1F,–,inactive: 2.37%
CCOC(=O)c1nnn(-c2nonc2N)c1COc1cc(C)c(Cl)c(C)c1,"inconclusive: 14.6 µM [cytotoxic, single point]",–
CC1=NNC(=O)C1CC(=O)N/N=C/C(C)=C/c1ccccc1 (configuration not stated),"inconclusive: 18.4 µM [rising, single point]",–
CCOC(=O)c1ccccc1NC(=O)c1c(-c2ccccc2)noc1C,"inconclusive: 20.6 µM [cytotoxic, single point]",–
Cc1ccnc(NC(=O)C2CCCN(c3ncnc4c3nc3n4CCCCC3)C2)c1 (configuration not stated),–,inactive: -18.5%
Cn1nnnc1SCC1=C(C(=O)O)N2C(=O)C(NC(=O)Cn3nc(C(F)F)cc3C3CC3)C2SC1 (configuration not stated),"inconclusive: 23.1 µM [rising, single point]",–
CCOc1ccccc1CN1CCNC(=O)C1CC(=O)NCCc1ccccn1 (configuration not stated),"inconclusive: 16.4 µM [rising, single point]",–
CCCCc1nc2ccccc2c(=O)n1NC(=O)c1c(O)c2c(n(CC(C)C)c1=O)CCCC2,active: 2.59 µM,–
COc1ccc(-c2ocnc2C(=O)NCc2nn(-c3ccccc3)nc2C)cc1,"inconclusive: 8.2 µM [cytotoxic, partial curve, poor fit]",–
CC(=O)Nc1cccc(C(=O)NCCc2ccco2)c1,–,inactive: 4.48%
CC(C)(C)C1CCc2c(sc(NC(=O)C3CCCO3)c2C(N)=O)C1 (configuration not stated),–,inactive: 0%
O=C(Nc1nc2ccc(Cl)cc2s1)c1ccc(Br)o1,–,inactive: 10.3%
CCCCn1c(N)c(N(CC)C(=O)C2CCCC2)c(=O)[nH]c1=O,"inconclusive: 16.4 µM [rising, single point]",–
CC(Sc1nnc(COc2ccccc2)n1Cc1ccccc1)C(=O)O (configuration not stated),"inconclusive: 23.1 µM [rising, single point]",–
Cc1ccccc1C1=NC(C(F)(F)F)(C(F)(F)F)c2c(n(-c3ccc(F)cc3)c(=O)[nH]c2=O)N1,active: 14.6 µM,–
COc1ccc(N2CCN(C(=O)COCC(=O)O)CC2)cc1,"inconclusive: 9.2 µM [rising, partial curve]",–
Cc1cc(C(F)(F)F)nc(SCC(=O)Nc2ccccc2)n1,"inconclusive: 20.6 µM [cytotoxic, single point]",–
